# Taken from: PubChem BioAssay AID1259405 (NCATS, 2018)
# Assay: 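Silenced genes that increase secreted GFP made by CHO cells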 (primary screen)
# Cells: Chinese hamster CHO-K1 ovary cells with stable secreted eGFP expression
# Knock-down reagent: single siRNA against mouse genes, 0.8 pmol siRNA per well (2 µl of 400 nM stock)
# Duration: 3 days
# Read-out: 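Percent of the per-plate non-targeting control median for intracellular GFP per well by laser scanning cytometry and for cell viability by ATP luminescence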
# Scale: GFP, % of control: higher = more GFP per well, higher productivity; viability (ATP), % of control: higher = more viable cells (more ATP)
# Call rule: 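Called active when intracellular GFP, relative to negative control, is at or above 120%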
# Shown is an unselected part of about 50,000 reagents. About 4,000 of all reagents (8%) count as active. 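Mouse siRNA library applied to hamster cells; one well for each siRNA.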 A number with no mark means an inactive call. Reagents against one gene are numbered here.
gene knocked down,siRNA no.,"GFP, % of control","viability (ATP), % of control"
Uqcrfs1,1,50.2,55.4
Uqcrfs1,2,83.7,65.4
Uqcrfs1,3,23.1,18.8
Ankrd53,1,94.3,65.3
Ankrd53,2,52.3,53.2
Ankrd53,3,76.7,70.7
Kcnq2,1,63.7,32.5
Kcnq2,2,89.6,58.9
Kcnq2,3,56.4,73.8
Cap1,1,83.1,83
Cap1,2,91,54
Cap1,3,127 (active),143
Grem1,1,90.9,83.6
Grem1,2,111,96.4
Grem1,3,134 (active),68.8
Fzd8,1,53.1,70.5
Fzd8,2,126 (active),84.3
Rasa1,1,111,93.7
Rasa1,2,77.2,64.9
Rasa1,3,70.1,57.8
Trarg1,1,82.9,67.1
Trarg1,2,65.1,78.9
Trarg1,3,92.6,95.4
Pcdhga9,1,72.6,57.4
Pcdhga9,2,85.5,64
Pcdhga9,3,60.8,63.1
Fhad1,1,53.8,43.3
Fhad1,2,46.8,46.3
Fhad1,3,77.1,65.3
Ccdc181,1,73,85.3
Ccdc181,2,68.5,44.7
Ccdc181,3,154 (active),137
Rab9,1,84.7,114
Rab9,2,164 (active),95.9
Rab9,3,68.5,65.7
Rab9,4,102,91.8
Rab9,5,116,84.4
Rab9,6,103,74.3
Slc35a5,1,100,57.7
Slc35a5,2,71.1,77
Slc35a5,3,57.4,79.5
Pou1f1,1,72.9,72.7
Pou1f1,2,91.7,84.3
Pou1f1,3,55.2,72.1
Ajm1,1,85.1,74.6
Ajm1,2,75.3,65.3
Ajm1,3,62.2,71
Usp45,1,71.5,46.6
Usp45,2,80,68.8
Usp45,3,76.7,79.8
Tfdp2,1,80,94
Tfdp2,2,102,105
Tfdp2,3,96.6,95.8
Itprid2,1,45.1,89.2
Itprid2,2,86.3,83.4
Itprid2,3,55.5,93.8
Elovl1,1,78.5,91.9
Elovl1,2,76.4,60.1
Elovl1,3,102,98.6
Sox15,1,69.1,90.6
Sox15,2,93.7,81.4
Sox15,3,85.5,110
Fthl17e,1,83.3,62.7
Fthl17e,2,88.7,70.8
Fthl17e,3,36.9,34.8
Mcm7,1,138 (active),127
Mcm7,2,76.4,83.5
Mcm7,3,113,75.9
Atad3a,1,86.9,83.1
Atad3a,2,56.3,71.4
Atad3a,3,50.2,57.1
Zfp462,1,83.5,53.9
Zfp462,2,62.5,84.4
Zfp462,3,113,89.9
Emp2,1,47.4,47.4
Emp2,2,78.9,79
Emp2,3,89.8,74.6
Lysmd4,1,30.2,38.8
Lysmd4,2,49.5,64
Lysmd4,3,63.4,96.3
Abcc5,1,85.2,55.2
Abcc5,2,95.8,59.9
Abcc5,3,25.9,69.9
Lefty1,1,46.6,77.5
Lefty1,2,161 (active),90.3
Lefty1,3,78.2,81
